The test system of the data set is BJ-TERT/LT/ST/RAS^V12 cells. The data set can be described thus: Calcein AM viability assay, dilution series, BJ-TERT/LT/ST/RAS^V12 tumorigenic cells. The following applies: from selectivity ratio for each subsequent pair of cell lines in a series. The data set is classed as cell-based, human. The procedure:
Described here is work carried out to identify compounds with increased potency or activity in the presence of hTERT, LT, ST, E6, E7 or RAS^V12. […] The primary screen tested (in quadruplicate) the effect of treating tumorigenic […], corresponding to 10 μM for a compound with a molecular weight of 400, which is the approximate median molecular weight of the libraries. […] In live cells, calcein AM is cleaved by intracellular esterases, forming the anionic fluorescent derivative calcein, which cannot diffuse out of live cells. […] The IC50 value (concentration required to inhibit 50% of the calcein AM signal) was calculated for each compound in each cell line (Table 1).
Calcein acetoxylmethyl ester (AM) is a cell membrane-permeable, non-fluorescent compound that is cleaved by intracellular esterases to form the anionic, cell-impermeable, fluorescent compound calcein. Viable cells are stained by calcein because of the presence of intracellular esterases and because the intact plasma membrane prevents fluorescent calcein from leaking out of cells (Wang et al., 1993, supra). […] Total fluorescence intensity in each well was recorded on a Packard Fusion platereader, and converted to a percent inhibition of signal by subtracting the instrument background and dividing by the average signal obtained when cells were not treated with any compound. […]

Take `CC[C@@]1(O)C(=O)OCc2c1cc1n(c2=O)Cc2cc3ccccc3nc2-1` [Camptothecin, camptothecin]: the “Genetic basis of Selectivity” value is on record as “RAS^v12/PP2A/RB”.
`Cc1c2ccccc2c(CSC(=N)N)c2ccccc12.Cl` [NSC146109]: the “Genetic basis of Selectivity” value is reported as “non-specific”.

The record behind these values is patent US8124365B2, “Identification of genotype-selective anti-tumor agents” (Whitehead Institute for Biomedical Research, priority 2003, dated 2012).
